{"sequences": {"note": "Chains of the proteins cited; added tags and fusions are not shown.", "UniProt P38432": "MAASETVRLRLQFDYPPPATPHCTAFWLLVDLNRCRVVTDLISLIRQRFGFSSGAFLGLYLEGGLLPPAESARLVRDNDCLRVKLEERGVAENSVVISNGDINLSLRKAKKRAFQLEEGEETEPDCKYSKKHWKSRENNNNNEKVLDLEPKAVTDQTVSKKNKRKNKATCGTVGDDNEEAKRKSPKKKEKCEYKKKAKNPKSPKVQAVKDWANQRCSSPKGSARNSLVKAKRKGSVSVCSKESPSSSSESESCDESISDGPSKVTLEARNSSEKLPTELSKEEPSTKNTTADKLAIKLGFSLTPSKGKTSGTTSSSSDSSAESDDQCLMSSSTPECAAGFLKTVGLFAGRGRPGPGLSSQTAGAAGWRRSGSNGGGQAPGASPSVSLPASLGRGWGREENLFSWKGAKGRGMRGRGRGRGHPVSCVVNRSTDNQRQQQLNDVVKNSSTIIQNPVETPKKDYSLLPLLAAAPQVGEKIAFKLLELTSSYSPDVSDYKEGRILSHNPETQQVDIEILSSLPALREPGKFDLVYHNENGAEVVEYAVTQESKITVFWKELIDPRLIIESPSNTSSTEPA", "UniProt P23804": "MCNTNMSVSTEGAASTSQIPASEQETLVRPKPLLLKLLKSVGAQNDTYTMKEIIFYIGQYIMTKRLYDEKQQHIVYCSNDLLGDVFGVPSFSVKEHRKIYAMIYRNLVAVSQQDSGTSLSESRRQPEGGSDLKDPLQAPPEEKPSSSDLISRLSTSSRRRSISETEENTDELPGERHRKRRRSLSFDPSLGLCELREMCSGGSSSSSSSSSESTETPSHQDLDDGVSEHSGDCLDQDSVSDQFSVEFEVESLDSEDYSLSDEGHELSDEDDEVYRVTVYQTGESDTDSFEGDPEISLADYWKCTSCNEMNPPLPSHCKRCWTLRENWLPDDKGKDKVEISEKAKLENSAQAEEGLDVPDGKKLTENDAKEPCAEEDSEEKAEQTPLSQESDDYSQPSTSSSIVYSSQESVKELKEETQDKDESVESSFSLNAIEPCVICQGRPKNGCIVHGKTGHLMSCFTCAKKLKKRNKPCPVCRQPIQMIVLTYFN"}, "source": "paper PMC4464288", "molecules": {"B1": {"name": "VRK1 (vaccinia-related kinase 1), endogenous human (enzyme, UniProt Q99986 1-396)", "chain": "MPRVKAAQAGRQSSAKRHLAEQFAVGEIITDMAKKEWKVGLPIGQGGFGCIYLADMNSSESVGSDAPCVVKVEPSDNGPLFTELKFYQRAAKPEQIQKWIRTRKLKYLGVPKYWGSGLHDKNGKSYRFMIMDRFGSDLQKIYEANAKRFSRKTVLQLSLRILDILEYIHEHEYVHGDIKASNLLLNYKNPDQVYLVDYGLAYRYCPEGVHKEYKEDPKRCHDGTIEFTSIDAHNGVAPSRRGDLEILGYCMIQWLTGHLPWEDNLKDPKYVRDSKIRYRENIASLMDKCFPEKNKPGEIAKYMETVKLLDYTEKPLYENLRDILLQGLKAIGSKDDGKLDLSVVENGGLKAKTITKKRKKEIEESKEPGVEDTEWSNTQTEEAIQTRSRTRKRVQK"}, "B2": {"name": "VRK1, transfected (enzyme, UniProt Q99986 1-396)", "chain": "B1 chain"}, "B3": {"name": "HA-RNF8, transfected (enzyme, UniProt O76064 1-485)", "chain": "MGEPGFFVTGDRAGGRSWCLRRVGMSAGWLLLEDGCEVTVGRGFGVTYQLVSKICPLMISRNHCVLKQNPEGQWTIMDNKSLNGVWLNRARLEPLRVYSIHQGDYIQLGVPLENKENAEYEYEVTEEDWETIYPCLSPKNDQMIEKNKELRTKRKFSLDELAGPGAEGPSNLKSKINKVSCESGQPVKSQGKGEVASTPSDNLDPKLTALEPSKTTGAPIYPGFPKVTEVHHEQKASNSSASQRSLQMFKVTMSRILRLKIQMQEKHEAVMNVKKQTQKGNSKKVVQMEQELQDLQSQLCAEQAQQQARVEQLEKTFQEEEQHLQGLEIAQGEKDLKQQLAQALQEHWALMEELNRSKKDFEAIIQAKNKELEQTKEEKEKMQAQKEEVLSHMNDVLENELQCIICSEYFIEAVTLNCAHSFCSYCINEWMKRKIECPICRKDIKSKTYSLVLDNCINKMVNNLSSEVKERRIVLIRERKAKRLF"}}, "key": {"[1]": {"biological_target": "coilin-myc (pCMV6-coilin-myc-DKK), transfected (human) (UniProt P38432)", "assay": "co-IP; immunoprecipitation of transfected proteins: 1-2 mg total lysate with specific antibodies, then Gamma-Bind G Plus Sepharose overnight at 4 °C; lysis buffer 1% Triton X100, 200 mM NaCl, 5 mM EDTA, 50 mM Tris pH 8.0"}, "[2]": {"biological_target": "coilin, endogenous human (human (endogenous in HeLa)) (UniProt P38432)", "assay": "co-IP; reciprocal immunoprecipitation of endogenous proteins from HeLa cell extract, non-synchronized cells; lysis buffer 1% Triton X100, 200 mM NaCl, 5 mM EDTA, 50 mM Tris pH 8.0; Gamma-Bind G Plus Sepharose, 4 °C"}, "[3]": {"biological_target": "coilin-myc (pCMV6-coilin-myc-DKK), transfected (human) (UniProt P38432)", "assay": "co-IP; immunoprecipitation of transfected proteins: 1-2 mg total lysate with specific antibodies, then Gamma-Bind G Plus Sepharose overnight at 4 °C; lysis buffer 1% Triton X100, 200 mM NaCl, 5 mM EDTA, 50 mM Tris pH 8.0", "remark": "listed apart in the source"}, "[4]": {"biological_target": "coilin-myc (pCMV6-coilin-myc-DKK), transfected (human) (UniProt P38432)", "assay": "pull-down; GST pull-down of transfected proteins: 1 mg total cell extract incubated with Glutathione-Sepharose beads for 6 hours, washed with lysis buffer"}}, "note": "Results are given in words; binding and its absence hold for the method and conditions named. Binding seen in cells or lysates may run through a third protein. Some binding calls cover weakened binding; strength is not graded here. For some assays here: Where a sequence is shown, tags or fusion partners need not be part of it.", "data": [{"molecule": "Mdm2 (pCOC-Mdm2-X2), transfected (from UniProt P23804 1-489) (enzyme)", "values": [{"measurement": "binding", "setting": "[1]", "result": "binds"}]}, {"molecule": "B1", "values": [{"measurement": "binding", "setting": "[2]", "result": "binds"}]}, {"molecule": "B2", "values": [{"measurement": "binding", "setting": "[3]", "result": "binds"}, {"measurement": "binding", "setting": "[4]", "result": "binds"}]}, {"molecule": "B3", "values": [{"measurement": "binding", "setting": "[3]", "result": "no binding"}]}]}
